According to PMC6539464:
No constants are given. Whether binding was seen depends on the method and setting. Binding seen in cells or lysates may run through a third protein. Some entries that bind do so weakly or less than the wild type.

Sequences of proteins named here, by UniProt entry; tags and fusion partners are left off. A change or cut given only in a name is not applied to a line headed by its entry.
UniProt Q9P287: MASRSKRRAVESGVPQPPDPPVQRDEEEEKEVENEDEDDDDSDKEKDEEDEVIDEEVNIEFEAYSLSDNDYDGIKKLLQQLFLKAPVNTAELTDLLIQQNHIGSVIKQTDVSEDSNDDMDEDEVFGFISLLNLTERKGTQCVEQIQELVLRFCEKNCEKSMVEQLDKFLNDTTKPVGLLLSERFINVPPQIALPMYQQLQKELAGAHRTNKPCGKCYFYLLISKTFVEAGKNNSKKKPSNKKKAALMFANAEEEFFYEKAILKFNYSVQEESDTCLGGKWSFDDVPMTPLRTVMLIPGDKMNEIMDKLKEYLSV
UniProt P25490: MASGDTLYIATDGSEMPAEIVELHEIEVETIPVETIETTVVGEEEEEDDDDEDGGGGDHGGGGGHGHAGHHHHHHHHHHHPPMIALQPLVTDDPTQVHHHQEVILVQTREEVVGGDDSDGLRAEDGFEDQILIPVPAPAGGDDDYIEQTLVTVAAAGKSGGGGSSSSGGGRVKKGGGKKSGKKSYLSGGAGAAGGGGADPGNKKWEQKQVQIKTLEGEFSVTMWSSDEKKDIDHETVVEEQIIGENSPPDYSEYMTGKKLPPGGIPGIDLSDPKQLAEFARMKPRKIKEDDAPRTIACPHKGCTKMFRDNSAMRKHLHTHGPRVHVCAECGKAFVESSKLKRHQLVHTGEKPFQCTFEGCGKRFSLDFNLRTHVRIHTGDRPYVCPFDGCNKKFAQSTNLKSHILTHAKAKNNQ

Key:
[1] = molecular target: Myc-BCCIPβ (BRCA2 and CDKN1A-interacting protein, isoform beta, 314 amino acids) (human) (UniProt Q9P287); experiment: co-IP; co-transfection of tagged plasmids in HCT116 (p53+/+) cells, also cells stably expressing pLVX-shNT or pLVX-shBCCIP; whole-cell lysate 48 h after transfection; anti-Flag M2 and anti-c-Myc agarose; elution with peptide or SDS loading buffer; western blot
[2] = molecular target: Myc-BCCIPβ (BRCA2 and CDKN1A-interacting protein, isoform beta, 314 amino acids) (human) (UniProt Q9P287); experiment: co-IP; co-transfection of Flag-YY1 and Myc-BCCIP in p53-null HCT116 (p53-/-) cells; whole-cell lysate; anti-Flag M2 and anti-c-Myc agarose; western blot
[3] = molecular target: Flag-YY1 (Yin Yang 1), full length (human) (UniProt P25490); experiment: co-IP; co-transfection of tagged plasmids in HCT116 (p53+/+) cells, also cells stably expressing pLVX-shNT or pLVX-shBCCIP; whole-cell lysate 48 h after transfection; anti-Flag M2 and anti-c-Myc agarose; elution with peptide or SDS loading buffer; western blot
[4] = molecular target: Flag-YY1 (Yin Yang 1), full length (human) (UniProt P25490); experiment: co-IP; co-transfection of Flag-YY1 and Myc-BCCIP in p53-null HCT116 (p53-/-) cells; whole-cell lysate; anti-Flag M2 and anti-c-Myc agarose; western blot

Row | binding [1] | binding [2] | binding [3] | binding [4] | Substance
1 | binds | binds weakly |  |  | Flag-YY1 (Yin Yang 1), full length (from UniProt P25490 1-414)
2 |  |  | binds | binds weakly | Myc-BCCIPβ (BRCA2 and CDKN1A-interacting protein, isoform beta, 314 amino acids) (from UniProt Q9P287-1 1-314)
